Source: publication doi:10.1101/2022.08.23.504425
These are yes or no findings as the source states them, for the method shown. Binding seen in cells or lysates may run through a third protein. Some results given as binding are weak or reduced against the parent protein; the word gives no strength.

Protein sequences, listed by entry. Tags and fused reporters are not part of them.
UniProt P42229: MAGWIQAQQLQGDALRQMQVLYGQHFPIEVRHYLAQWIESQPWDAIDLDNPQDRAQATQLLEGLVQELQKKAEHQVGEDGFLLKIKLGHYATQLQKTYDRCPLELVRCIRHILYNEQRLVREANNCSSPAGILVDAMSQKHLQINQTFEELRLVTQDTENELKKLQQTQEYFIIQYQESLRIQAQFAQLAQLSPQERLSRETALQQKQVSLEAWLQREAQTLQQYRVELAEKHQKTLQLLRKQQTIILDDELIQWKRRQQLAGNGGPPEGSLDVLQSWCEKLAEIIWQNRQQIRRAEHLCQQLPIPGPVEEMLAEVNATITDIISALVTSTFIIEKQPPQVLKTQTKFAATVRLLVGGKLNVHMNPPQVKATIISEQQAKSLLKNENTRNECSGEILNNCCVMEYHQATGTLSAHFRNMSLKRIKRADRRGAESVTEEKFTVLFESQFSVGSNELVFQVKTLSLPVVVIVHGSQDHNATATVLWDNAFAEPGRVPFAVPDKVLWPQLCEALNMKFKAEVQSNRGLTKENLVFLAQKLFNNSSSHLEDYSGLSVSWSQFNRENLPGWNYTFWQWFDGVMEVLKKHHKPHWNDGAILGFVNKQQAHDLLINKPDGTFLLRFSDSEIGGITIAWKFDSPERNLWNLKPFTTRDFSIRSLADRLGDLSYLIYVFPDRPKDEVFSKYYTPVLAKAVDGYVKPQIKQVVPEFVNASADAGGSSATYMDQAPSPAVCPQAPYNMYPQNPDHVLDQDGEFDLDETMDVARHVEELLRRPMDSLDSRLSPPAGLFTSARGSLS
UniProt O14746: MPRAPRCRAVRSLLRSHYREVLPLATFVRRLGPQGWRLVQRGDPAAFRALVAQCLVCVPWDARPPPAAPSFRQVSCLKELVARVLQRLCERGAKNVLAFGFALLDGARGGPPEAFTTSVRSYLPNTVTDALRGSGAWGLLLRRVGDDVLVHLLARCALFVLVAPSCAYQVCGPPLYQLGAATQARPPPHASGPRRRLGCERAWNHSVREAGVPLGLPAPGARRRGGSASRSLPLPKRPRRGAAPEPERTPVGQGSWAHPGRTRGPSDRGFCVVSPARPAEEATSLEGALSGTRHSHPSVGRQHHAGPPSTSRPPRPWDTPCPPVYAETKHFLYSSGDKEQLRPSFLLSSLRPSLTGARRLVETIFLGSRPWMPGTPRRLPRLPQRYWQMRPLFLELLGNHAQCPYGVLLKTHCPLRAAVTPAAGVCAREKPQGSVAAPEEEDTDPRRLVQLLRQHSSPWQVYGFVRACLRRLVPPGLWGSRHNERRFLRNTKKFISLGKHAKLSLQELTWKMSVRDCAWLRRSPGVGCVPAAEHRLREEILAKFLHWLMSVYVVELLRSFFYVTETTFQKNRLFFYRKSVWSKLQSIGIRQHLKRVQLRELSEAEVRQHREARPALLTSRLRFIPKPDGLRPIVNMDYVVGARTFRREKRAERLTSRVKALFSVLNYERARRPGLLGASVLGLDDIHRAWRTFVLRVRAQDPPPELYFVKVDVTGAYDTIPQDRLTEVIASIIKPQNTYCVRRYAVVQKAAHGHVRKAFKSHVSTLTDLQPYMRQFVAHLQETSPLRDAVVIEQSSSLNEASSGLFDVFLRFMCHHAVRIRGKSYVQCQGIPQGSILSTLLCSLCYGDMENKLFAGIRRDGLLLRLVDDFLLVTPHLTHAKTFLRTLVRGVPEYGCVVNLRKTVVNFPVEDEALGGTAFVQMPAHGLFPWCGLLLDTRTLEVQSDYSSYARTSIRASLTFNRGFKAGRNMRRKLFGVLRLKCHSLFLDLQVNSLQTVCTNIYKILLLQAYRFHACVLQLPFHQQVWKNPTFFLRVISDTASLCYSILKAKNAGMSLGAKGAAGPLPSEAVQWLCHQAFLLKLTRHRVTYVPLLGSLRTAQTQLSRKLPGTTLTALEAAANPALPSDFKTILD

Target: STAT5A-CFAST fusion protein (human) (UniProt P42229)
Assay: split reporter

TERT-NFAST fusion protein (from UniProt O14746 1-1132)
binding: binds
